From publication PMC11289294
No constants are given. Whether binding was seen depends on the method and setting. In cells and extracts the contact can be indirect. Some results given as binding are weak or reduced against the parent protein; the word gives no strength. For part of these data: Tags and fused reporters may be left off the sequences shown. One block for each molecule: values may come before it.

Protein sequences, listed by entry. Tags and fused reporters are not part of them.
UniProt P19474: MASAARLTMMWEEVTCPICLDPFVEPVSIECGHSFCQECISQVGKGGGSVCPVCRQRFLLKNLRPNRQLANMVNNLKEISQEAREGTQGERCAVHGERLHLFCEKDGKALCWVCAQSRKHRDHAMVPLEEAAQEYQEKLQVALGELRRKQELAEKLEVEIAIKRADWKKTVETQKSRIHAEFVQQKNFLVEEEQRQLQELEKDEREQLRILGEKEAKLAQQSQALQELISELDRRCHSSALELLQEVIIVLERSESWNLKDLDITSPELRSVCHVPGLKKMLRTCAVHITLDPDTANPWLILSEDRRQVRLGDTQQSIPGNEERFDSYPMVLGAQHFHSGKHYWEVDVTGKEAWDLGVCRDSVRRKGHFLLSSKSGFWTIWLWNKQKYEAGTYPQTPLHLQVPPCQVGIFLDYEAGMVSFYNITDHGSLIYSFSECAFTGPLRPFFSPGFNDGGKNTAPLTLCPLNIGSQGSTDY

Experiments:
[1] = biological target: T1, CCT2-Flag (chaperonin-containing TCP1 subunit 2), expressed in HEK293T cells (human) (UniProt P78371); assay: co-IP; HEK293T cells transfected with CCT2-Flag and Trim21-HA (or their truncation mutants); IP with anti-Flag or anti-HA antibodies, protein A/G plus agarose, 4 °C overnight
T1 sequence: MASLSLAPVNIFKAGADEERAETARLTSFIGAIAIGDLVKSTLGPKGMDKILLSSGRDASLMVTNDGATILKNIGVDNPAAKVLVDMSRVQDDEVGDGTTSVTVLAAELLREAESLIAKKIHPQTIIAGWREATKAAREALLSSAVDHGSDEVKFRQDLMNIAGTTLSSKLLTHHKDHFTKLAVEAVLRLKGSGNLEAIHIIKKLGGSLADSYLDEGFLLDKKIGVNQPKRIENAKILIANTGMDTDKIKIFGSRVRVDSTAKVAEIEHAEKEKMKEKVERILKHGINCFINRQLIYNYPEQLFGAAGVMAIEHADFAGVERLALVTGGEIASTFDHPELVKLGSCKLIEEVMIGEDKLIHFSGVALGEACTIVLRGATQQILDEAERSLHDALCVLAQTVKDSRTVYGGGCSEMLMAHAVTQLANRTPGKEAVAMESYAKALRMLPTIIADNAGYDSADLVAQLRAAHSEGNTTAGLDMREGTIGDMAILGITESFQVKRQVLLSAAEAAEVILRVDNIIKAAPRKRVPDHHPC

[2] = biological target: T2, CCT2, endogenous in human breast cancer cells (human (endogenous in MDA-MB-231 and MDA-MB-468)) (UniProt P78371); assay: co-IP; endogenous CCT2 and Trim21 in lysates of MDA-MB-231, MDA-MB-468 and 4T1 cells; protein A/G plus agarose, 4 °C overnight, IgG as control
T2 sequence: T1 sequence

[3] = biological target: T3, CCT2, endogenous in mouse 4T1 breast cancer cells (mouse (endogenous in 4T1)) (UniProt P80314); assay: as above
T3 sequence: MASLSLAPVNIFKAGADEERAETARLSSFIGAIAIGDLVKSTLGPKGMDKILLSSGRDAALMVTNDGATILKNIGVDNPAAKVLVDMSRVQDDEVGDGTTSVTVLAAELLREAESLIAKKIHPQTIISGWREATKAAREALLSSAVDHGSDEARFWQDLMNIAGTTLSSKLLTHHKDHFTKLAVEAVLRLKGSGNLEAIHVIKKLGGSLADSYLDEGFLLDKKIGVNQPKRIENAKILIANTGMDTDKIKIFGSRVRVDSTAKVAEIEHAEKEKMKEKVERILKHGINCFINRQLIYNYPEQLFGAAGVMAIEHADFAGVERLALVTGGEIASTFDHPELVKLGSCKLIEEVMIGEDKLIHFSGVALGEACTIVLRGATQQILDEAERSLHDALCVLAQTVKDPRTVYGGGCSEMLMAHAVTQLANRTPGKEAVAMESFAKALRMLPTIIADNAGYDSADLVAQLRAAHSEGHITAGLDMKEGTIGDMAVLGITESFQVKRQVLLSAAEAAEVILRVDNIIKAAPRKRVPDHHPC

binding [1]: binds
Molecule: Trim21-HA, expressed in HEK293T cells (from UniProt P19474 1-475)

binding [2]: binds
Molecule: Trim21 (ubiquitin E3 ligase), endogenous in human breast cancer cells (from UniProt P19474 1-475)

binding [3]: binds
B1: Trim21, endogenous in mouse 4T1 breast cancer cells (protein, UniProt Q62191 1-470)
chain: MSPSTTSKMSLEKMWEEVTCSICLDPMVEPMSIECGHCFCKECIFEVGKNGGSSCPECRQQFLLRNLRPNRHIANMVENLKQIAQNTKKSTQETHCMKHGEKLHLFCEEDGQALCWVCAQSGKHRDHTRVPIEEAAKVYQEKIHVVLEKLRKGKELAEKMEMDLTMQRTDWKRNIDTQKSRIHAEFALQNSLLAQEEQRQLQRLEKDQREYLRLLGKKEAELAEKNQALQELISELERRIRGSELELLQEVRIILERSGSWNLDTLDIDAPDLTSTCPVPGRKKMLRTCWVHITLDRNTANSWLIISKDRRQVRMGDTHQNVSDNKERFSNYPMVLGAQRFSSGKMYWEVDVTQKEAWDLGVCRDSVQRKGQFSLSPENGFWTIWLWQDSYEAGTSPQTTLHIQVPPCQIGIFVDYEAGVVSFYNITDHGSLIYTFSECVFAGPLRPFFNVGFNYSGGNAAPLKLCPLKM
